Laboratory results taken from patent US20200247886A1.
Results are given in words; binding and its absence hold for the method and conditions named. Some results given as binding are weak or reduced against the parent protein; the word gives no strength.

Protein sequences, listed by entry. Tags and fused reporters are not part of them. Lines headed by an entry give the natural chain unless they say otherwise; changes in a name come on top.
UniProt Q08722: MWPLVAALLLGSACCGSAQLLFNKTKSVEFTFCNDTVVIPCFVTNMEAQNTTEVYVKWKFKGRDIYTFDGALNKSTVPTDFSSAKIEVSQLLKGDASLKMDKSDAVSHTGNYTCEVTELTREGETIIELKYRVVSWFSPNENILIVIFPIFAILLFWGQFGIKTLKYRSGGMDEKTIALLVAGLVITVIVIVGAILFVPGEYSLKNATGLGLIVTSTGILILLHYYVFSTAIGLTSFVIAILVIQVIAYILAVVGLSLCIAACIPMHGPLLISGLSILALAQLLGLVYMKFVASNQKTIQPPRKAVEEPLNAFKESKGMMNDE

Key:
[1] = biological target: CD47 on monkey RBC (Macaca fascicularis); assay: flow cytometry on cynomolgus monkey red blood cells, MFI
[2] = biological target: CD47 protein (construct not stated; SPR antigen, CD47 coated ELISA plates) (Homo sapiens (Human)) (UniProt Q08722); assay: ELISA, CD47 coated plates, OD at 450
[3] = biological target: CD47 protein (construct not stated; SPR antigen, CD47 coated ELISA plates) (Homo sapiens (Human)) (UniProt Q08722); assay: EC50 as grade, ELISA on CD47 coated plates; legend +: <0.06 µg/mL
[4] = biological target: human CD47 expressed on cells (CD47 expressing CHO cells, Jurkat, HL60, DLD1, Raji) (human) (UniProt Q08722); assay: flow cytometry SIRP-alpha blocking assay on Raji cells, MFI
[5] = biological target: human CD47 expressed on cells (CD47 expressing CHO cells, Jurkat, HL60, DLD1, Raji) (human) (UniProt Q08722); assay: flow cytometry on human platelets, donor 1, MFI
[6] = biological target: human CD47 expressed on cells (CD47 expressing CHO cells, Jurkat, HL60, DLD1, Raji) (human) (UniProt Q08722); assay: flow cytometry on human platelets, donor 2, MFI
[7] = biological target: human CD47 expressed on cells (CD47 expressing CHO cells, Jurkat, HL60, DLD1, Raji) (human) (UniProt Q08722); assay: flow cytometry on human red blood cells, donor 1, MFI
[8] = biological target: human CD47 expressed on cells (CD47 expressing CHO cells, Jurkat, HL60, DLD1, Raji) (human) (UniProt Q08722); assay: flow cytometry on human red blood cells, donor 2, MFI

B1: Positive 1 (commercial anti-CD47 blocking antibody, eBioscience Cat#14-0479) (antibody, V domains shown)
VH: EVQLVESGGDLVKPGGSLKLSCAASGFTFSGYGMSWVRQTPDKRLEWVATITSGGTYTYYPDSVKGRFTISRDNAKNTLYLQIDSLKSEDTAIYFCARSLAGNAMDYWGQGTSVTVSS
VL: DIVMTQSPATLSVTPGDRVSLSCRASQTISDYLHWYQQKSHESPRLLIKFASQSISGIPSRFSGSGSGSDFTLSINSVEPEDVGVYYCQNGHGFPRTFGGGTKLEIK
binding [1]: binds

B2: H-ABU 28 (antibody, V domains shown)
VH: QVQLVQSGAEVKKPGASVKVSCKTSGYSFTNYWMQWVRQAPGQGLEWIGMIDPSDSESRLNQKFKDRATLTVDTSTSTAYMELSSLRSEDTAVYYCARRGSPMITSFAYWGQGTLVTVSS
VL: DVQITQSPSSLSASVGDRVTITCRASKNIGKYLAWFQQKPGKAPKSLIYSGSTLQSGVPSRFSGSGSGTDFTLTISSLQPEDFATYYCQQHNEYPYTFGGGTKVEIK
binding [2]: binds
binding [3]: binds

B3: H-ABU 29 (antibody, V domains shown)
VH: QVQLVQSGAEVKKPGASVKVSCKTSGYSFTNYWMQWVRQAPGQGLEWIGMIDPSDSESRLNQKFKDRATLTVDTSTSTAYMELSSLRSEDTAVYYCARRGSPMITSFAYWGQGTLVTVSS
VL: DIQMTQSPSSLSASVGDRVTITCRASKNIGKYLAWFQQKPGKAPKSLIYSGSTLQSGIPSRFSGSGSGTDFTLTISSLQPEDFATYYCQQHNEYPYTFGGGTKVEIK
binding [2]: binds
binding [3]: binds

B4: H-ABU 30 (antibody, V domains shown)
VH: QVQLVQSGAEVKKPGASVKVSCKTSGYSFTNYWMQWVRQAPGQGLEWIGMIDPSDSESRLNQKFKDRATLTVDTSTSTAYMELSSLRSEDTAVYYCARRGSPMITSFAYWGQGTLVTVSS
VL: DVQITQSPSSLSASVGDRVTITCRASKNIGKYLAWFQQKPGKAPKSLIYSGSTLQSGIPSRFSGSGSGTDFTLTISSLQPEDFATYYCQQHNEYPYTFGGGTKVEIK
binding [2]: binds
binding [3]: binds

B5: H-ABU 31 (antibody, V domains shown)
VH: QVQLVQSGAEVKKPGASVKVSCKTSGYSFTNYWMQWVRQAPGQGLEWIGMIDPSDSESRLNQKFKDRATLTVDTSTSTAYMELSSLRSEDTAVYYCARRGSPMITSFAYWGQGTLVTVSS
VL: DVQITQSPSSLSASVGDRVTITCRASKNIGKYLAWFQQKPGKTNKLLIYSGSTLQSGIPSRFSGSGSGTDFTLTISSLQPEDFATYYCQQHNEYPYTFGGGTKVEIK
binding [2]: binds
binding [3]: binds

B6: H-ABU 32 (antibody, V domains shown)
VH: QVQLQQSGAEVKKPGASVKVSCKTSGYSFTNYWMQWVRQAPGQGLEWIGMIDPSDSESRLNQKFKDKATLTVDKSTSTAYMELSSLRSEDTAVYYCARRGSPMITSFAYWGQGTLVTVSS
VL: DIQMTQSPSSLSASVGDRVTITCRASKNIGKYLAWFQQKPGKAPKSLIYSGSTLQSGVPSRFSGSGSGTDFTLTISSLQPEDFATYYCQQHNEYPYTFGGGTKVEIK
binding [2]: binds
binding [3]: binds

B7: H-ABU 33 (antibody, V domains shown)
VH: QVQLQQSGAEVKKPGASVKVSCKTSGYSFTNYWMQWVRQAPGQGLEWIGMIDPSDSESRLNQKFKDKATLTVDKSTSTAYMELSSLRSEDTAVYYCARRGSPMITSFAYWGQGTLVTVSS
VL: DVQITQSPSSLSASVGDRVTITCRASKNIGKYLAWFQQKPGKAPKSLIYSGSTLQSGVPSRFSGSGSGTDFTLTISSLQPEDFATYYCQQHNEYPYTFGGGTKVEIK
binding [2]: binds
binding [3]: binds

B8: H-ABU 34 (antibody, V domains shown)
VH: QVQLQQSGAEVKKPGASVKVSCKTSGYSFTNYWMQWVRQAPGQGLEWIGMIDPSDSESRLNQKFKDKATLTVDKSTSTAYMELSSLRSEDTAVYYCARRGSPMITSFAYWGQGTLVTVSS
VL: DIQMTQSPSSLSASVGDRVTITCRASKNIGKYLAWFQQKPGKAPKSLIYSGSTLQSGIPSRFSGSGSGTDFTLTISSLQPEDFATYYCQQHNEYPYTFGGGTKVEIK
binding [2]: binds
binding [3]: binds

B9: H-ABU 35 (antibody, V domains shown)
VH: QVQLQQSGAEVKKPGASVKVSCKTSGYSFTNYWMQWVRQAPGQGLEWIGMIDPSDSESRLNQKFKDKATLTVDKSTSTAYMELSSLRSEDTAVYYCARRGSPMITSFAYWGQGTLVTVSS
VL: DVQITQSPSSLSASVGDRVTITCRASKNIGKYLAWFQQKPGKAPKSLIYSGSTLQSGIPSRFSGSGSGTDFTLTISSLQPEDFATYYCQQHNEYPYTFGGGTKVEIK
binding [2]: binds
binding [3]: binds

B10: H-ABU 36 (antibody, V domains shown)
VL: DVQITQSPSSLSASVGDRVTITCRASKNIGKYLAWFQQKPGKTNKLLIYSGSTLQSGIPSRFSGSGSGTDFTLTISSLQPEDFATYYCQQHNEYPYTFGGGTKVEIK
VH: QVQLQQSGAEVKKPGASVKVSCKTSGYSFTNYWMQWVRQAPGQGLEWIGMIDPSDSESRLNQKFKDKATLTVDKSTSTAYMELSSLRSEDTAVYYCARRGSPMITSFAYWGQGTLVTVSS
binding [2]: binds
binding [3]: binds

B11: H-ABU42 (antibody, V domains shown)
VH: QVQLVQSGAEVKKPGASVKVSCKASGYTFTNYWMQWVRQAPGQGLEWMGMIDPSDSESRLNQKFKDRVTMTRDTSTSTVYMELSSLRSEDTAVYYCARRGSPMITSFAYWGQGTLVTVSS
VL: DVQITQSPSSLSASVGDRVTITCRASKNIGKYLAWFQQKPGKAPKSLIYSGSTLQSGIPSRFSGSGSGTDFTLTISSLQPEDFATYYCQQHNEYPYTFGGGTKVEIK
binding [4]: binds

B12: ABU1 (antibody, V domains shown)
VH: EVKLVESGGGLVQPGGSRKLSCAASGFTFSDYGMAWVRQAPGKGPECVAFISNLAKRIYYVDTVTGRFTISRENAKNTLYLEMSSLRSEDTAMYYCTRAYRYALDYWGQGTTLTVSS
VL: QIVLTQSPAIMSASPGEKVTMTCSASSSVSYMNWYQQKSGTSPKRWIYDTSKLASGVPARFSGSGSGTSYSLTISSMEAEDAATYYCQQWNSNPPTFGTGTKLELK
binding [1]: binds

B13: H-ABU44 (antibody, V domains shown)
VH: QVQLVQSGAEVKKPGASVKVSCKASGYSFTNYHIHWVRQAPGQRLEWIGWIYPGSGNTKYNEKFKGRATLTADTSASTAYMELSSLRSEDTAVYYCARYDYDLYLHSWGQGTLVTVSS
VL: DIQITQSPSSVSASVGDRVTITCHASQNINVWLSWYQQKPGKAPKLLIYKASNLHTGVPSRFSGSGSGTGFTLTISSLQPEDFATYYCQQGQSYPLTFGQGTKLEIK
binding [5]: binds
binding [6]: binds
binding [7]: binds
binding [8]: binds

B14: ABU2 (antibody, V domains shown)
VH: QVQLQQPGAELVRPGASVKLSCKASGYTFTNYWMNWFKQRPEQGLEWIGRIDPYDSETLYNQKFKDKAILTVDKSSSTAYMQLSSLTSEDSAVYYCAGGGKGGFGYWGQGTLVTVSA
VL: DVLMTQTPLSLPVSLGDQASISCRSSQSIVYSNGNTYLEWYLQKPGQSPKLLIYKVSNRFSGVPDRFSGSGSGTDFTLKISRVEAEDLGVYYCFQGSHVPYTFGGGTKLEIK
binding [1]: binds

B15: ABU3 (antibody, V domains shown)
VH: EVQLQQSGAELVKPGASVKLSCTASGFTIKDTYMHWVKQRPEQGLEWIGRIDPAKDNTKYDPKFQGKATITLDTSSNIAYLQLSSLTSEDTAVYFCARGHYGSSYVVYWGQGTLVTVSA
VL: NILMTQSPKSMSMSVGERVTLSCKASENVGTYVSWYQQKPDQSPKLLIYGASNRYTGVPDRFTGSGSATDFTLTISSVQAEDLADYHCGQSYSYPLTFGAGTKLELK
binding [1]: binds

B16: ABU4 (antibody, V domains shown)
VH: QVQLQQSGPQLVRPGASVKISCKTSGYSFTNYWMQWVKQRPGQGLEWIGMIDPSDSESRLNQKFKDKATLTVDKSSSTAYMQLSSPTFEDSAVYYCARRGSPMITSFAYWGQGTLVTVSA
VL: DVQITQSPSFLAASPGETITINCRASKNIGKYLAWFQEKPGKTNKLLIYSGSTLQSGIPSRFSGSGSGTDFTLTISSLEPEDFAIYYCQQHNEYPYTFGGGTKLEIK
binding [1]: binds

B17: ABU5 (antibody, V domains shown)
VH: QVQLQQPGAELVKPGASVKMSCKASGYTFTNYWIAWVKRRPGQGLEWIGDFYPGNTSTNYNEKFKTKATLTIDTSSSTAYMQLSSLTSEDSAVYYCARRGRGGSSYWGQGTTLTVSS
VL: DVLMTQTPLSLPVSLGEQASISCRSSQSIVHSNGNTYLEWYLQKPGQSPKLLIYRVANRFSGVPDRFSGSGSGTDFTLKISRVEAEDLGVYYCFQGSHVPWTFGGGTKLEIK
binding [1]: binds

B18: ABU7 (antibody, V domains shown)
VH: EVQLQQSGPELVKPGASVKISCKASGYSFTGYYMNWVKQSPEKSLEWIGEINPSTGGTTYNQKFKAKATLTVDKSSSTAYMQLKSLTFEDSAVYYCAIYDGYEGFAYWGQGTLVTVSA
VL: DIKMTQSPSSMYASLGERVTITCKASQDIKSYLSWYQQKPWKSPKTLIYYATSLADGVPSRFSGSGSGQHYSLTISSLESDDTATYYCLQHGESPFTFGSGTKLEIK
binding [1]: binds
